Source: PubChem BioAssay AID1259254 (NCATS, 2017)
Shown is an unselected part of about 59,000 reagents tested. Over the whole deposit, about 1,550 (2.6%) were called active. 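G2 share is only a proxy for re-replication; each gene was hit by three separate siRNAs, and active genes were retested.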 Raw values vary from plate to plate and are shown uncorrected. Reagents against one gene are numbered here. Not given: the amount of reagent.

Aim: 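Gene knock-downs that lead to re-replication, shown by excess G2 DNA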 (primary screen)
Cells: human HCT116 colorectal cancer cells
Reagent: single siRNA against human genes
Time to read-out: 3 days
Detection: 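Nuclei stained with Hoechst and imaged; cell-cycle phase assigned by DNA content; G2 share scaled per plate, non-targeting siRNA 0%, GMNN siRNA 100%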
Reading the numbers: G2 robust z-score and G2 cells, % of GMNN control: higher = more G2 cells, more excess DNA replication; raw share of cells in G2: higher = larger share of cells with G2 DNA content
Call rule: 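An siRNA counts as active if its G2 robust z-score lies at least 5 MADs above the screen median; here such calls match roughly 38% of GMNN control or more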

gene | reagent no. | G2 robust z-score | G2 cells, % of GMNN control | raw share of cells in G2 (%) | Call
IL12A | 1 | 0.312 | 5.16 | 5.22 | inactive
IL12A | 2 | 1 | 10 | 9.23 | inactive
IL12A | 3 | 0.91 | 9.37 | 7.92 | inactive
CEP290 | 1 | 1.81 | 15.7 | 11 | inactive
CEP290 | 2 | 0.903 | 9.32 | 8.38 | inactive
CEP290 | 3 | 0.394 | 5.74 | 3.95 | inactive
RPS25P4 | 1 | 0.67 | 7.68 | 6.6 | inactive
RPS25P4 | 2 | -0.75 | -2.31 | 2.6 | inactive
RPS25P4 | 3 | -0.729 | -2.16 | 3.89 | inactive
CCNL2 | 1 | 1.39 | 12.7 | 8.34 | inactive
CCNL2 | 2 | -0.457 | -0.245 | 3.38 | inactive
CCNL2 | 3 | -1.42 | -7.01 | 0.28 | inactive
MVK | 1 | 2.58 | 21.1 | 12.5 | inactive
MVK | 2 | -1.54 | -7.87 | 3.01 | inactive
MVK | 3 | 2.08 | 17.6 | 10.2 | inactive
ADGRE2 | 1 | -1.36 | -6.63 | 3.47 | inactive
ADGRE2 | 2 | -1.06 | -4.49 | 2.95 | inactive
ADGRE2 | 3 | -0.765 | -2.41 | 2.53 | inactive
GOLGA2P10 | 1 | -0.33 | 0.647 | 2.55 | inactive
GOLGA2P10 | 2 | -1.09 | -4.68 | 2.5 | inactive
GOLGA2P10 | 3 | -0.375 | 0.33 | 4.45 | inactive
GNGT2 | 1 | 3.5 | 27.6 | 13.5 | inactive
GNGT2 | 2 | 1.19 | 11.4 | 9.58 | inactive
GNGT2 | 3 | -0.329 | 0.654 | 5.47 | inactive
FUNDC1 | 1 | -0.188 | 1.64 | 4.79 | inactive
FUNDC1 | 2 | 2.55 | 20.9 | 9.73 | inactive
FUNDC1 | 3 | -0.254 | 1.18 | 3.01 | inactive
SPECC1L | 1 | 2.69 | 21.9 | 12.6 | inactive
SPECC1L | 2 | -0.189 | 1.64 | 4.65 | inactive
SPECC1L | 3 | -0.942 | -3.66 | 2.02 | inactive
RGPD4-DT | 1 | 0.0477 | 3.3 | 4.39 | inactive
RGPD4-DT | 2 | -0.267 | 1.09 | 4.35 | inactive
RGPD4-DT | 3 | 0.854 | 8.97 | 6.21 | inactive
PLEKHA6 | 1 | -0.762 | -2.39 | 4.05 | inactive
PLEKHA6 | 2 | -0.243 | 1.26 | 4.65 | inactive
PLEKHA6 | 3 | -0.499 | -0.543 | 2.97 | inactive
HEBP2 | 1 | 1.14 | 11 | 8.56 | inactive
HEBP2 | 2 | 4.6 | 35.3 | 19.2 | inactive
HEBP2 | 3 | -0.793 | -2.61 | 2.39 | inactive
MIER2 | 1 | -0.397 | 0.175 | 3.67 | inactive
MIER2 | 2 | 1.73 | 15.1 | 10.6 | inactive
MIER2 | 3 | -0.373 | 0.343 | 3.31 | inactive
MTARC1 | 1 | 0.283 | 4.96 | 6.74 | inactive
MTARC1 | 2 | -0.405 | 0.119 | 4.66 | inactive
MTARC1 | 3 | 0.355 | 5.46 | 4.14 | inactive
ARL10 | 1 | 1.26 | 11.8 | 11 | inactive
ARL10 | 2 | -0.272 | 1.05 | 5.37 | inactive
ARL10 | 3 | -0.305 | 0.822 | 4.58 | inactive

A stretch taken from the entries so far, as a working copy:
gene | reagent no. | G2 robust z-score | G2 cells, % of GMNN control | raw share of cells in G2 (%) | Call
CCNL2 | 1 | 1.39 | 12.7 | 8.34 | inactive
CCNL2 | 2 | -0.457 | -0.245 | 3.38 | inactive
CCNL2 | 3 | -1.42 | -7.01 | 0.28 | inactive
MVK | 1 | 2.58 | 21.1 | 12.5 | inactive
MVK | 2 | -1.54 | -7.87 | 3.01 | inactive
